# Out of some 330,000 compounds screened, about 7,700 (2.3%) were called active. Inconclusive means that the source gave no clear call. Such entries were picked first, then a sample of the others. Calls come from the whole dose curve; as a rule, active = well fitted inhibition curve with a large enough effect; inconclusive = small, poorly fitted or top-dose-only effect, or effect the other way; inactive = flat fitted curve, though single readings scatter. Potencies of inconclusive entries are doubtful fits and often do not repeat.
# Experiment: qHTS screen for small molecules that inhibit ELG1-dependent DNA repair in human embryonic kidney (HEK293T) cells expressing luciferase-tagged ELG1; note: nearly all actives have a fitted effect of over 55% in size
# Details: HEK293T ELG1-luciferase reporter, luminescence, 16 h, DNA damage induced by 5-fluorouridine; series mostly up to 46.1 µM
# Procedure, shortened: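 5-Fluorouridine DNA damage + compound/DMSO, 2,000 cells/well, 16 h, 37 °C/5% CO2. ONE-Glo, 30 min RT, luminescence. Readout = decrease in reporter signal.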
# Potency is the fitted concentration of half-maximal effect.
row,SMILES,Potency
1,COc1cc(/C=N/N=C2/NC(=O)C(Cc3ccc(F)cc3)S2)ccc1O (stereo not given),"inconclusive: 14.6 µM [activator, partial curve]"
2,Cc1ccc2nc(-c3ccc(NC(=S)NC(=O)CC(C)C)cc3)sc2c1,"inconclusive: 8.2 µM [activator, partial curve]"
3,Cc1ccc2c(C)nc(Nc3nc(CSc4nc5ccccc5[nH]4)cc(=O)[nH]3)nc2c1,active: 4.61 µM
4,O=C(O)c1cccc(-c2nnn(Cc3ccccc3)n2)c1,"inconclusive: 2.31 µM [activator, partial curve]"
5,CCOC(=O)C(CSCC(=O)c1ccc(Cl)cc1Cl)NC(=O)OC(C)(C)C (stereo not given),inactive
6,CCCNC(=O)NC(=O)CSc1nc2ccccc2n1CC(C)C,"inconclusive: 8.91 µM [inhibitor, partial curve, poor fit]"
7,CCOc1ccccc1NC(=O)c1cc(C(=O)c2cc(Br)ccc2O)coc1=N,"inconclusive: 25.9 µM [inhibitor, single point]"
8,CCOC(=O)c1c(/N=C/c2cc([N+](=O)[O-])ccc2O)sc(C)c1C,"inconclusive: 0.517 µM [inhibitor, partial curve, poor fit]"
9,O=C(NCCSCc1ccc(Cl)cc1Cl)c1ccc(CN2CCOCC2)cc1,"inconclusive: 18.4 µM [inhibitor, single point]"
10,O=C(Nc1ccc(NC(=O)C2CCCCC2)nc1)c1cccc(F)c1,"inconclusive: 20.6 µM [activator, single point]"
11,CC(=O)NC1=NN(C(C)=O)C(c2ccc(C)cc2)S1 (stereo not given),"inconclusive: 23.1 µM [activator, partial curve, poor fit]"
12,CC1CCc2sc(C(=O)N(C)CC(=O)Nc3cccc(F)c3)cc2C1 (stereo not given),"inconclusive: 11.6 µM [activator, partial curve, poor fit]"
13,COc1ccc(/C=C/C(=O)Oc2cccc(/C=N/NC(=O)Cc3ccc(Br)cc3)c2)cc1,"inconclusive: 18.3 µM [activator, partial curve]"
14,CCN(CC)C(=O)CSc1nc2cc3c(cc2c(=O)n1Cc1ccc2c(c1)OCO2)OCO3,"inconclusive: 35.5 µM [inhibitor, single point]"
15,O=C(NCc1ccc(F)cc1)c1cccnc1C(=O)O,inactive
16,COC(=O)Oc1nsnc1N1CCOCC1,"inconclusive: 23.1 µM [inhibitor, partial curve, poor fit]"
17,Cc1ccc2c(c1)N=C(c1ccc(F)cc1)CO2,"inconclusive: 16.4 µM [activator, partial curve]"
18,CCOc1ccc(NC(=O)CN2CCN(CC(=O)c3ccc(OCC)cc3)CC2)cc1,inactive
19,Cn1nc(C(=O)OCC(=O)Nc2ccc(F)cc2Cl)c2ccccc2c1=O,"inconclusive: 18.3 µM [activator, partial curve, poor fit]"
20,CCc1ccc(NC(=O)CSc2ccc(-c3ccccn3)nn2)cc1,"inconclusive: 32.6 µM [activator, partial curve, poor fit]"
21,Cc1csc(NC(=O)CCc2c(C)nc3cc(-c4ccc(Cl)cc4)nn3c2C)n1,"inconclusive: 29.1 µM [inhibitor, single point]"
22,Cc1ccc(OCc2cc(C(=O)NCC(C)c3ccccc3)no2)cc1C (stereo not given),"inconclusive: 7.3 µM [inhibitor, single point]"
23,OCC(Cc1ccccc1)Nc1c2ccccc2nc2ccccc12 (stereo not given),inactive
24,COC(=O)c1cc(-c2ccc(S(=O)(=O)N3CCCCC3)cc2)c(C(F)(F)F)s1,inactive

# Among those listed so far, four contain a Cl atom:
row,SMILES,Potency
5,CCOC(=O)C(CSCC(=O)c1ccc(Cl)cc1Cl)NC(=O)OC(C)(C)C (stereo not given),inactive
9,O=C(NCCSCc1ccc(Cl)cc1Cl)c1ccc(CN2CCOCC2)cc1,"inconclusive: 18.4 µM [inhibitor, single point]"
19,Cn1nc(C(=O)OCC(=O)Nc2ccc(F)cc2Cl)c2ccccc2c1=O,"inconclusive: 18.3 µM [activator, partial curve, poor fit]"
21,Cc1csc(NC(=O)CCc2c(C)nc3cc(-c4ccc(Cl)cc4)nn3c2C)n1,"inconclusive: 29.1 µM [inhibitor, single point]"

# Further compounds.

row,SMILES,Potency
1,CC1CN(S(=O)(=O)c2ccc(C(=O)Nc3nccs3)cc2)CC(C)O1 (stereo not given),"inconclusive: 20.6 µM [inhibitor, single point]"
2,CSS(=O)(=O)c1cccc2cccnc12,"inconclusive: 29.1 µM [activator, partial curve, poor fit]"
3,COc1cc(/C=C/C(=O)O)cc(S(=O)(=O)Nc2ccc3c(c2)CCC3)c1OC,inactive
4,COc1cccc(-c2cc3onc(-c4ccccc4)c3c(=O)n2C)c1,"inconclusive: 0.708 µM [activator, full curve]"
5,O=C(COc1ccc(/C=N/NC(=O)c2ccccc2)cc1)Nc1ccc([N+](=O)[O-])cc1,inactive
6,Cc1cccc(N/N=C/c2ccc(O)c(O)c2O)c1,"inconclusive: 8.2 µM [activator, partial curve, poor fit]"
7,COc1ccc(CC(=O)NCC2CCCN(Cc3ccc(OC(F)(F)F)cc3)C2)cc1 (stereo not given),inactive
8,NNC(=O)c1cc2c(s1)-c1cc(Cl)ccc1SC2,"inconclusive: 29.1 µM [inhibitor, partial curve, poor fit]"
9,CCN(CC)c1ccc(/C=N/NC(=O)c2c[nH]c3ccccc23)cc1,inactive
10,CCn1cc(C(=O)N2CCN(c3cccc(Cl)c3)CC2)c2cc(OC)c(OC)cc2c1=O,"inconclusive: 20.6 µM [inhibitor, single point]"
11,COc1cc(NC(=O)COC(=O)c2ccc(C)c(S(=O)(=O)N3CCCCC3)c2)c(C)cc1[N+](=O)[O-],active: 8.2 µM
12,CCn1c(SCC(=O)N2CCN(c3ccccc3)CC2)nnc1-c1c[nH]c2ccccc12,active: 13 µM
13,OCCNCCCCSc1ccc(Cl)cc1,inactive
14,O=C(NCC1CCCO1)c1ccc(N2CCCCC2)nc1 (stereo not given),"inconclusive: 20.6 µM [activator, partial curve]"
15,Cc1ccc(NC(=O)C2CCN(S(=O)(=O)c3ccc4c(c3)OCCO4)CC2)c(O)c1,inactive
16,COc1cc(CC(=O)Nc2sccc2C(N)=O)cc(OC)c1OC,"inconclusive: 7.31 µM [inhibitor, partial curve]"
17,COc1cccc(CNCc2ccc(C(=O)O)cc2)c1OC,"inconclusive: 29.1 µM [inhibitor, single point]"
18,O=C1NCC(c2ccccc2)C1C(=O)N/N=C/c1ccc(Cl)s1 (stereo not given),inactive
19,Cc1cc(C)nc(/N=C(\N)Nc2ccc(OCCC(C)C)cc2)n1,inactive
20,Cc1cc(CSc2ccccc2)ccc1NC(=O)c1ccc(CN2CCOCC2)cc1,inactive
21,CN(C)S(=O)(=O)Oc1cccc(C(=O)Nc2cccc(Cl)c2)c1,"inconclusive: 3.66 µM [activator, single point]"
22,CCc1ccccc1OCCOc1ccc(C)cc1OC,inactive
23,CC(C)Oc1ccc(C(=O)NC2CCN(Cc3ccccc3)CC2)cc1,"inconclusive: 11.6 µM [inhibitor, partial curve, poor fit]"
24,N#CC1(NC(=O)CN2c3cccc4cccc(c34)S2(=O)=O)CCCCC1,inactive

row,SMILES,Potency
1,COc1cc2nc(CN3CCN(S(=O)(=O)c4c(F)cccc4F)CC3)[nH]c(=O)c2cc1OC,active: 5.8 µM
2,O=C(O)c1csc(N/N=C/c2ccc(Br)cc2)n1,"inconclusive: 25.9 µM [activator, partial curve]"
3,Cc1[nH]c(=O)c(C#N)cc1-c1ccncc1,inactive
4,Cc1ccc(NC(=O)c2cc([N+](=O)[O-])ccc2NCc2cccnc2)cc1,"inconclusive: 23.1 µM [inhibitor, single point]"
5,CCN(CC)S(=O)(=O)c1ccc(C)c(NC(=O)COc2ccc3c(C)cc(=O)oc3c2)c1,"inconclusive: 29.1 µM [inhibitor, single point]"
6,COc1ccc(CCN(C)C(=O)CN2C(=O)NC3(CCCCC3C)C2=O)cc1OC (stereo not given),inactive
7,O=C(Nc1cccc(F)c1)Nc1ccccn1,"inconclusive: 0.58 µM [activator, partial curve, poor fit]"
8,CCOC(=O)N1CCN(C(=O)COC(=O)C2CCN(S(=O)(=O)c3ccc(C)c(C)c3)CC2)CC1,inactive
9,OC(CNC1CCCC1)COCCOc1ccc(Br)cc1 (stereo not given),inactive
10,O=C(CCN1C(=O)S/C(=C\c2ccccc2)C1=O)NCCCn1ccnc1,"inconclusive: 16.4 µM [activator, partial curve]"
11,O=C(COc1ccc(Cl)cc1Cl)Nc1nnc(C2=COCCO2)o1,"inconclusive: 16.4 µM [inhibitor, single point]"
12,NC(=O)CC(NC(=O)c1ccc(Br)cc1)c1ccc(N2CCCCCC2)c([N+](=O)[O-])c1 (stereo not given),inactive
13,Cc1ccc(C(C)(C)NC(=O)C2CCC(=O)N(Cc3ccccc3F)C2)cc1 (stereo not given),"inconclusive: 29.1 µM [activator, partial curve, poor fit]"
14,CCOc1ccc(NC(=O)CSC2=C(C#N)C(c3ccc4c(c3)OCO4)CC(=O)N2)cc1 (stereo not given),"inconclusive: 29.1 µM [inhibitor, single point]"
15,Cc1ccccc1OCC(=O)NNC(=O)c1ccc2c(=O)n3c(nc2c1)CCC3,inactive
16,COc1ccc(C(=O)/C=C/Nc2cccc(C)n2)cc1OC,"inconclusive: 2.59 µM [activator, partial curve]"
17,COc1ccc(-c2n[nH]c(=S)n2-c2cc(OC)ccc2OC)cc1,"inconclusive: 29.1 µM [inhibitor, partial curve, poor fit]"
18,Cc1cccnc1NC(=O)c1ccc2c(c1)NC(=O)C(C)S2 (stereo not given),"inconclusive: 25.9 µM [activator, single point]"
19,S=C(Nc1ccc(Cl)c(Cl)c1)NC1CCN(Cc2ccccc2)CC1,"inconclusive: 23.1 µM [inhibitor, partial curve, poor fit]"
20,CC(C)(C)OC(=O)NCCCC[C@H](NC(=O)c1nc[nH]c1C(=O)N[C@@H](CCCCNC(=O)OC(C)(C)C)C(=O)OC(C)(C)C)C(=O)OC(C)(C)C,active: 9.2 µM
21,COc1cccc(N2CCN(c3ncnc4c3[nH]c3ccccc34)CC2C)c1 (stereo not given),active: 4.61 µM
22,O=C1CCCN1c1ccc(S(=O)(=O)Oc2ccc(Cl)cc2)cc1[N+](=O)[O-],inactive

# Source: PubChem BioAssay AID504467 (National Center for Advancing Translational Sciences (NCATS), 2011)
